This is one part of the list. Small differences around the control level are noise.
Compound: Cc1nc(Nc2ncc(C(=O)Nc3c(C)cccc3Cl)s2)cc(N2CCN(CCO)CC2)n1 [dasatinib]
Assay: log2 fold change of tryptic peptide abundance, ligand vs vehicle (limited proteolysis) (log2 ratio); higher = more trypsin-susceptible (destabilized)
Details: ligand concentration: 5 uM; sample: K562 cleared lysate

Chains of the proteins cited; added tags and fusions are not shown. Lines headed by an entry give the natural chain unless they say otherwise; changes in a name come on top.
UniProt Q53QV2: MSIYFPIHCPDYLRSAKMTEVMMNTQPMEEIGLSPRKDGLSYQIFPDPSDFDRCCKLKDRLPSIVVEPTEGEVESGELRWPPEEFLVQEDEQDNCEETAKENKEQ
UniProt Q5BKU9: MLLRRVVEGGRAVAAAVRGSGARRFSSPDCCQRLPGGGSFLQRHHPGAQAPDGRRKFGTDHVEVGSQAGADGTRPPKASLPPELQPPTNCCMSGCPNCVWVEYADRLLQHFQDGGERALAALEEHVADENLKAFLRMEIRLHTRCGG
UniProt Q499Z4: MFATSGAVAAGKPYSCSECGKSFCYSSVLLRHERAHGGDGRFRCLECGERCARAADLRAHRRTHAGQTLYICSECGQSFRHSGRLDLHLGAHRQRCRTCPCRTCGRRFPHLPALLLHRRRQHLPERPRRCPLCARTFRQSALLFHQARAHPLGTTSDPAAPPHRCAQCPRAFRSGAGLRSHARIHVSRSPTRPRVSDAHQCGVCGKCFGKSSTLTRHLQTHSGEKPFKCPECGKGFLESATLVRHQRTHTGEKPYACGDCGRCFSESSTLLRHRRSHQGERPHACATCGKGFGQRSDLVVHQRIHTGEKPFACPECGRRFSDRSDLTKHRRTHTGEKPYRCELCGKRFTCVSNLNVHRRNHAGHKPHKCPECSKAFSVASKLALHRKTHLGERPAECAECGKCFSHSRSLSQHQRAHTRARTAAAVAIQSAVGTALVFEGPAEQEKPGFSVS
UniProt Q5T3J3: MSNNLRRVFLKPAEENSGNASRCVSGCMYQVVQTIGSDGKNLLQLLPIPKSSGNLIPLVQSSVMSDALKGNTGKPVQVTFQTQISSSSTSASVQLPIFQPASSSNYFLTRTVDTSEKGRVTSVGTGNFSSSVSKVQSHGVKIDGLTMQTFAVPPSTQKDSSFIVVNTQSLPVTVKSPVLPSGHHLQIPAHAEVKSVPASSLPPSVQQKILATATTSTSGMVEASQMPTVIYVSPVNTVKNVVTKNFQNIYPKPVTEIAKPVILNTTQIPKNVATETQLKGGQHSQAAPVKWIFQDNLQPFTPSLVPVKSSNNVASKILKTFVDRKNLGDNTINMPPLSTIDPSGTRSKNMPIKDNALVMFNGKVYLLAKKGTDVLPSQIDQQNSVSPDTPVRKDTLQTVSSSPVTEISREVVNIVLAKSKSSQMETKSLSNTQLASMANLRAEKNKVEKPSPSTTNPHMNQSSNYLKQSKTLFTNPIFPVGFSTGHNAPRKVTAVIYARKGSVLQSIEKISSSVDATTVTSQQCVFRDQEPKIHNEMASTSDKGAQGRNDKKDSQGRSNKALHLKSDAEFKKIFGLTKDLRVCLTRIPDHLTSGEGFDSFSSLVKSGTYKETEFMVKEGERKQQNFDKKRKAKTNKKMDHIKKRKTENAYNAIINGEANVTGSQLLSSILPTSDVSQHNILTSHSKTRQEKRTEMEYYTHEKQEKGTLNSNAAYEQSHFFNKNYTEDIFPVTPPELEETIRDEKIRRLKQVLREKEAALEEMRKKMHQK
UniProt Q562F6: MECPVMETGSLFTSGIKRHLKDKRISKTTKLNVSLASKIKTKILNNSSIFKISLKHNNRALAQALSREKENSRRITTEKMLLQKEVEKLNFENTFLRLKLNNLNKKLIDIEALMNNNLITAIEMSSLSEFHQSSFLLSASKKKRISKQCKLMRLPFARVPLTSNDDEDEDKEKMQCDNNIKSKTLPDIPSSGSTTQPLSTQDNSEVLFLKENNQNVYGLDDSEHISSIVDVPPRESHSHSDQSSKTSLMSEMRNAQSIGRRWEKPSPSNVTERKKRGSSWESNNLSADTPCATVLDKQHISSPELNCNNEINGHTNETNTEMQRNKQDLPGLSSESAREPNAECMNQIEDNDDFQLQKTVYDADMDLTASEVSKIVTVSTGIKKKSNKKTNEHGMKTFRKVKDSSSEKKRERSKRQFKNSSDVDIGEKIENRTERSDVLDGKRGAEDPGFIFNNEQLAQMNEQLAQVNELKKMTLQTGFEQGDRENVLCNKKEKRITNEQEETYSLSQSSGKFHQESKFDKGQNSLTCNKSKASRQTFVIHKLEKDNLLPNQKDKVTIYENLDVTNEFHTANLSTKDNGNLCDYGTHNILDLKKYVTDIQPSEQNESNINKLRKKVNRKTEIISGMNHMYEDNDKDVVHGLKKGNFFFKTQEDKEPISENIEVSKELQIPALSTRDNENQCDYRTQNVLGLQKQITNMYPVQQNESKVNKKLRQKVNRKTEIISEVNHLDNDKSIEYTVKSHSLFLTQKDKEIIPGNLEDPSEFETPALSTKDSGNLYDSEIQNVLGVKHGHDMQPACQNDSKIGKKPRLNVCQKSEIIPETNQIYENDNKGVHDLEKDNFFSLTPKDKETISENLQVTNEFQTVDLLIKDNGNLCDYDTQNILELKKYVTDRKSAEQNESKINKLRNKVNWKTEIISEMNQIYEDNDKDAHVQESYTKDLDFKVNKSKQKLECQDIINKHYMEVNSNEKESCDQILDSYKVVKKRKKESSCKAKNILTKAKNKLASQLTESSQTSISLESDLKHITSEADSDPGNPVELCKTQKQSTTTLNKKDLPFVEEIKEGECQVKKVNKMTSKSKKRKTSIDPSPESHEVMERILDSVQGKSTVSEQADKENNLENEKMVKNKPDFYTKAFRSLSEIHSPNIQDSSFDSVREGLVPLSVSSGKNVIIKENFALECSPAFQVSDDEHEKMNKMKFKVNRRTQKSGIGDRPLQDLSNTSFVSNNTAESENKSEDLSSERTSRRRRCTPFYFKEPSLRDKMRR
UniProt Q5T0F9: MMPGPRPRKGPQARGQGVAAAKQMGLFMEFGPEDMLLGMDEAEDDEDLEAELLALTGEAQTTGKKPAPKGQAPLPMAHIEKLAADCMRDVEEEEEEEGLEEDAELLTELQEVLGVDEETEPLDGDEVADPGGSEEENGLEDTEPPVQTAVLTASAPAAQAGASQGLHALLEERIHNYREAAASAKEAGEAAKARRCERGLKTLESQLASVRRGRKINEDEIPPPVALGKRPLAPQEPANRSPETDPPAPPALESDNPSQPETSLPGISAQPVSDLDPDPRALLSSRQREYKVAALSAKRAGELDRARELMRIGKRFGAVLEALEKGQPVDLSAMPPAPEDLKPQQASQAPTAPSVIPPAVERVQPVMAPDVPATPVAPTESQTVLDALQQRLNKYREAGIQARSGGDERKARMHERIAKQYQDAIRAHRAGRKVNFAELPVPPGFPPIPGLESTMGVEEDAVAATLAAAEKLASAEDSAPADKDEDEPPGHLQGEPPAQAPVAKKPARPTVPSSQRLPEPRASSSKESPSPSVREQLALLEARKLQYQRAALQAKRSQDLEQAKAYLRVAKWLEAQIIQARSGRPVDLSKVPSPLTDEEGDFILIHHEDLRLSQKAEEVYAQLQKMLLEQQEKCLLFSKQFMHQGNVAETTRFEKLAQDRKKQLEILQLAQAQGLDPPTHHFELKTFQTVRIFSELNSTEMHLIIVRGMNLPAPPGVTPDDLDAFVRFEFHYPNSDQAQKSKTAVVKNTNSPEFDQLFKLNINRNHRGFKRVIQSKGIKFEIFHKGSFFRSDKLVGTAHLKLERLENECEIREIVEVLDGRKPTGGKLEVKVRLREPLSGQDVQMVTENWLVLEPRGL
UniProt Q4FZB7: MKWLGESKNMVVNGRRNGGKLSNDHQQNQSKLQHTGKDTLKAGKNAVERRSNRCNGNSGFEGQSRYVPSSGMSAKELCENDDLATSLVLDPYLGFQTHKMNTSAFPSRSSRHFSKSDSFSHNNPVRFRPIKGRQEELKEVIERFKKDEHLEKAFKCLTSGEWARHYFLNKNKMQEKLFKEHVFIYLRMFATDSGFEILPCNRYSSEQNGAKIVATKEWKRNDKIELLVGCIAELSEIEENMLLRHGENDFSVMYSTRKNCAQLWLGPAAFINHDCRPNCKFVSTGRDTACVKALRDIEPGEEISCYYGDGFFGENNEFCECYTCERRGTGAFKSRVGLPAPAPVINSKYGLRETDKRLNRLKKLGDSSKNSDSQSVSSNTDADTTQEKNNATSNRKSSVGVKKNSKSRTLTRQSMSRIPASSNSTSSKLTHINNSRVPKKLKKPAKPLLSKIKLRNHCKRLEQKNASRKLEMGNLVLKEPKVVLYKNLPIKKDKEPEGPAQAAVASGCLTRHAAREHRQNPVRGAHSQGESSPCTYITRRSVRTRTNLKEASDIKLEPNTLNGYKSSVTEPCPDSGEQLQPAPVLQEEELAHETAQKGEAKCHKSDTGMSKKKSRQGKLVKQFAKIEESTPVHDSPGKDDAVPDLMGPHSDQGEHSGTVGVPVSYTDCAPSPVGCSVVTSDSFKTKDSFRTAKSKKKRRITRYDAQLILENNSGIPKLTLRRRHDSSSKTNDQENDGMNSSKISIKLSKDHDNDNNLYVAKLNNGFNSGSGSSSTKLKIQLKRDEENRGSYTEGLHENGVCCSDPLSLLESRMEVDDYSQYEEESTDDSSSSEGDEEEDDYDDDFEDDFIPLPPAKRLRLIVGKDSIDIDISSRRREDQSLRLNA
UniProt Q5U5X0: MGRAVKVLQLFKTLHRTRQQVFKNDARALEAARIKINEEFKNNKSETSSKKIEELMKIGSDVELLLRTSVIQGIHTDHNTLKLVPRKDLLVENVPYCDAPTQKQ
UniProt Q53HC0: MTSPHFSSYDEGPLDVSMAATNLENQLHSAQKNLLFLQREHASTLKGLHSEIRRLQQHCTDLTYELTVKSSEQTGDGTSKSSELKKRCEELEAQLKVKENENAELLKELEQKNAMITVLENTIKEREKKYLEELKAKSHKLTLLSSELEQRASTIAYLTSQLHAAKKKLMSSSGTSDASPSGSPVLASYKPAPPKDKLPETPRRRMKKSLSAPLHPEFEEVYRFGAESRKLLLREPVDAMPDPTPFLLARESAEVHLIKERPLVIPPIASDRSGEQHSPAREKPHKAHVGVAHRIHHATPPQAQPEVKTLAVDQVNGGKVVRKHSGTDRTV
UniProt Q5JQF8: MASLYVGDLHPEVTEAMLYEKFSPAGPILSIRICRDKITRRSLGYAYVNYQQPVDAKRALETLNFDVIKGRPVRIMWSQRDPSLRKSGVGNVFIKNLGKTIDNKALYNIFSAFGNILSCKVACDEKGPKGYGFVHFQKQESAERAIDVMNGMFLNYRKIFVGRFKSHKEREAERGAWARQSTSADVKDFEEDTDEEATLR
UniProt Q58EX7: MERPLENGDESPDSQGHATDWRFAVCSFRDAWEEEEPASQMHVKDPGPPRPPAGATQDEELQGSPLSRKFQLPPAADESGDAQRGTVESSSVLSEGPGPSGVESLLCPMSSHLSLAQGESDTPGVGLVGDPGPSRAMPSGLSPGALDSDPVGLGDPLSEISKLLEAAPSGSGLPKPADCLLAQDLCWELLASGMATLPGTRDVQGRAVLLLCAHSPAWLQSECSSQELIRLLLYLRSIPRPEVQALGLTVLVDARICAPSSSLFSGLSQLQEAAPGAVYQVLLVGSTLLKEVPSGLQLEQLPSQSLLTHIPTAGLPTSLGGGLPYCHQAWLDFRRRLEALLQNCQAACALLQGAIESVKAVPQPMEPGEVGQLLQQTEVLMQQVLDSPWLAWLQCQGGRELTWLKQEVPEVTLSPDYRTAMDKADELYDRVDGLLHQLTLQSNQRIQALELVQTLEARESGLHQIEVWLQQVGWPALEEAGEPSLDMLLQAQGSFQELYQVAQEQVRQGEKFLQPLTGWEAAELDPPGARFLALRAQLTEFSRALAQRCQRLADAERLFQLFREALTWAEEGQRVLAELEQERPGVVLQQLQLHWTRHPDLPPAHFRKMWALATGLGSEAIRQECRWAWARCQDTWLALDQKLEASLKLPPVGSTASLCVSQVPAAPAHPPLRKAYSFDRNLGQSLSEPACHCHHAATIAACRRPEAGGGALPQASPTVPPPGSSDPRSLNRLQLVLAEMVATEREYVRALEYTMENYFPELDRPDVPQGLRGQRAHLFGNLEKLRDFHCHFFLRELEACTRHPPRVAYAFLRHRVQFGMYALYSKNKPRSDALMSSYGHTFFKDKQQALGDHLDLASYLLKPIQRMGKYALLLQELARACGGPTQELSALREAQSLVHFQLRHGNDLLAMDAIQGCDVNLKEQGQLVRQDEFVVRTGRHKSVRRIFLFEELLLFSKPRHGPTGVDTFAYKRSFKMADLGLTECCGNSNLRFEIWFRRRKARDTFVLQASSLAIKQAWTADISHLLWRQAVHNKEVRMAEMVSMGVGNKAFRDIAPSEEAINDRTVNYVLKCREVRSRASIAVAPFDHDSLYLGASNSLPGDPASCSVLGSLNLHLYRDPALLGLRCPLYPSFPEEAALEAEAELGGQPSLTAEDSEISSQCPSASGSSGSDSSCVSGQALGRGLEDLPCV
UniProt Q4G0S7: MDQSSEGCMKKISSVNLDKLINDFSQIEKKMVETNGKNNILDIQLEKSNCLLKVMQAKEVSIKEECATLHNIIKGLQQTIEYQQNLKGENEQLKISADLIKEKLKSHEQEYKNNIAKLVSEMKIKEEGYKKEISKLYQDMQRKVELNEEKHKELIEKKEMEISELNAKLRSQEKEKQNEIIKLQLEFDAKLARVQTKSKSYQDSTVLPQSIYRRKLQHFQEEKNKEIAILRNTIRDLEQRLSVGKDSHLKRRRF

## AHDC1 (peptide sequence: ADKEPLEMARPPGPPR, peptide start residue: 1514) (UniProt Q5TGY3)
  log2 fold change: -0.196

## PPP1R15B (peptide sequence: APFQTSGENEKGCRDSK, peptide start residue: 573) (UniProt Q5SWA1)
  log2 fold change: 0.5

## PLCH1 (peptide sequence: VISGQQLPK, peptide start residue: 635) (UniProt Q4KWH8)
  log2 fold change: -0.0177

## UniProt Q3ZCT1 (peptide sequence: SHTGEKPYGCNECGK, peptide start residue: 233)
  log2 fold change: 0.0185

## CEP85L (peptide sequence: AQGKEPNLSLLLGIR, peptide start residue: 737) (UniProt Q5SZL2)
  log2 fold change: -0.215

## LBH (peptide sequence: KDGLSYQIFPDPSDFDRCCK, peptide start residue: 37) (UniProt Q53QV2)
  log2 fold change: -0.328

## UniProt Q5TEC3 (peptide sequence: LHTGERPNLCADCGK, peptide start residue: 282)
  log2 fold change: -0.434

## ARID4B (peptide sequence: KDVHEITSDTAPKPDAVLK, peptide start residue: 228) (UniProt Q4LE39)
  log2 fold change: 0.162

## NOM1 (peptide sequence: SADEANVLR, peptide start residue: 834) (UniProt Q5C9Z4)
  log2 fold change: 0.0801

## GPATCH4 (peptide sequence: GQDPGAPQLQSESKPPK, peptide start residue: 187) (UniProt Q5T3I0)
  log2 fold change: -0.306

## STXBP5 (peptide sequence: YTYDEAIHSVAWHHEGK, peptide start residue: 234) (UniProt Q5T5C0)
  log2 fold change: -0.558

## KLHL12 (peptide sequence: DLVDEAKK, peptide start residue: 250) (UniProt Q53G59)
  log2 fold change: 0.175

## OXLD1 (peptide sequence: ALAALEEHVADENLK, peptide start residue: 118) (UniProt Q5BKU9)
  log2 fold change: 0.0837

## ZMYM1 (peptide sequence: TEPDNAQEYCHR, peptide start residue: 26) (UniProt Q5SVZ6)
  log2 fold change: -0.833

## KLHL26 (peptide sequence: ALHCYDPVADQWEFKAPMSEPR, peptide start residue: 477) (UniProt Q53HC5)
  log2 fold change: -0.326

## ZNF672 (peptide sequence: GFLESATLVR, peptide start residue: 235) (UniProt Q499Z4)
  log2 fold change: 0.722

## FLYWCH1 (peptide sequence: SILGLGQARPLEFLR, peptide start residue: 261) (UniProt Q4VC44)
  log2 fold change: 0.513

## SPECC1 (peptide sequence: VKNEEPTTQEGK, peptide start residue: 451) (UniProt Q5M775)
  log2 fold change: -0.974

## DNAJC21 (peptide sequence: AWYDNHR, peptide start residue: 63) (UniProt Q5F1R6)
  log2 fold change: -0.173

## UniProt Q5T3J3 (peptide sequence: NMPIKDNALVMFNGK, peptide start residue: 349)
  log2 fold change: 0.291

## VMA21 (peptide sequence: AALNALQPPEFR, peptide start residue: 7) (UniProt Q3ZAQ7)
  log2 fold change: 0.0619

## UniProt Q562F6 (peptide sequence: CTPFYFKEPSLR, peptide start residue: 1249)
  log2 fold change: 0.486

## MINDY4 (peptide sequence: GMMSGPIASSPQDSFHR, peptide start residue: 210) (UniProt Q4G0A6)
  log2 fold change: 0.258

## CPTP (peptide sequence: RAVTVAFCTLPTR, peptide start residue: 156) (UniProt Q5TA50)
  log2 fold change: -0.536

## ZC3H12A (peptide sequence: LGAQASPGSR, peptide start residue: 381) (UniProt Q5D1E8)
  log2 fold change: -0.2

## CC2D1B (peptide sequence: FEFHYPNSDQAQK, peptide start residue: 728) (UniProt Q5T0F9)
  log2 fold change: -0.546

## ACBD5 (peptide sequence: STEEVKPIDENLGQTGK, peptide start residue: 262) (UniProt Q5T8D3)
  log2 fold change: -0.686

## PDSS1 (peptide sequence: FSLPGDVDR, peptide start residue: 354) (UniProt Q5T2R2)
  log2 fold change: -0.293

## UniProt Q5VSL9 (peptide sequence: ANIERFNARR, peptide start residue: 773)
  log2 fold change: -0.705

## NUP188 (peptide sequence: DGVCVLGLHLAK, peptide start residue: 1280) (UniProt Q5SRE5)
  log2 fold change: -0.352

## UniProt Q4FZB7 (peptide sequence: LSNDHQQNQSK, peptide start residue: 21)
  log2 fold change: 0.226

## TPRG1L (peptide sequence: QTLWPLSIHDPTRR, peptide start residue: 44) (UniProt Q5T0D9)
  log2 fold change: -0.076

## UniProt Q5FWF6 (peptide sequence: SLLLGHER, peptide start residue: 186)
  log2 fold change: 0.395

## LYRM7 (peptide sequence: KIEELMK, peptide start residue: 51) (UniProt Q5U5X0)
  log2 fold change: -0.0934

## RPRD2 (peptide sequence: HFGQAPSK, peptide start residue: 1025) (UniProt Q5VT52)
  log2 fold change: 0.567

## CCDC92 (peptide sequence: ASTIAYLTSQLHAAK, peptide start residue: 152) (UniProt Q53HC0)
  log2 fold change: -0.401

## RARS2 (peptide sequence: IVVEFSSPNVAKK, peptide start residue: 127) (UniProt Q5T160)
  log2 fold change: 0.63

## MIA3 (peptide sequence: ELEDEVPILGR, peptide start residue: 643) (UniProt Q5JRA6)
  log2 fold change: -0.376

## UniProt Q5TF39 (peptide sequence: HSIIETSR, peptide start residue: 465)
  log2 fold change: 0.124

## UniProt Q3MJ13 (peptide sequence: LLEGGSLVK, peptide start residue: 441)
  log2 fold change: 0.149

## UniProt Q5TEJ8 (peptide sequence: TLLQVLQDPALK, peptide start residue: 177)
  log2 fold change: 0.114

## ESCO2 (peptide sequence: IGLLSASSK, peptide start residue: 272) (UniProt Q56NI9)
  log2 fold change: -0.199

## CCDC93 (peptide sequence: EEMGDYIR, peptide start residue: 132) (UniProt Q567U6)
  log2 fold change: -0.269

## COBLL1 (peptide sequence: SVHAAPNPAPK, peptide start residue: 887) (UniProt Q53SF7)
  log2 fold change: 0.345

## VPS13D (peptide sequence: SLSLASTSR, peptide start residue: 2682) (UniProt Q5THJ4)
  log2 fold change: 0.324

## UniProt Q5JQF8 (peptide sequence: KSGVGNVFIK, peptide start residue: 95)
  log2 fold change: 0.266

## DOP1A (peptide sequence: AIMDNLMTHDKTTFR, peptide start residue: 2133) (UniProt Q5JWR5)
  log2 fold change: -0.59

## FILIP1L (peptide sequence: RISDPQVFSK, peptide start residue: 789) (UniProt Q4L180)
  log2 fold change: -0.657

## NT5DC1 (peptide sequence: VVYFGDSMHSDIFPAR, peptide start residue: 308) (UniProt Q5TFE4)
  log2 fold change: -0.329

## TOR1AIP1 (peptide sequence: MQNDSILK, peptide start residue: 301) (UniProt Q5JTV8)
  log2 fold change: -0.45

## PLEKHG4 (peptide sequence: DIAPSEEAINDR, peptide start residue: 1053) (UniProt Q58EX7)
  log2 fold change: 0.0677

## CCDC152 (peptide sequence: LYQDMQR, peptide start residue: 136) (UniProt Q4G0S7)
  log2 fold change: 0.231

## FSIP2 (peptide sequence: KASDSTEAALK, peptide start residue: 3276) (UniProt Q5CZC0)
  log2 fold change: -0.058
